# Measured values taken from patent US20210380703A1.
# Positions count from the first letter of the chain named. These are yes or no findings as the source states them, for the method shown. Where a sequence is shown, tags or fusion partners need not be part of it.
# T1: His-tagged Human ACVR2B (human) (UniProt Q13705)
# T1 sequence (looked up): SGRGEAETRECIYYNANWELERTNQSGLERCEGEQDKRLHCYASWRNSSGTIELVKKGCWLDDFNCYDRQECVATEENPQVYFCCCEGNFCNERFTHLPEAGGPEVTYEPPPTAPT
# T2: His-tagged Mouse ACVR2B (mouse) (UniProt P27040)
# T2 sequence (looked up): T1 sequence (looked up) with A101P
# B1: 371_G11 (antibody, V domains shown)
# VH: EVQLLESGGGLVQPGGSLRLSCAASGFTFSSYGMNWVRQAPGKGLEWVSNINYNSGYTSYADSVKGRFTISRDNSKNTLYLQMNSLRAEDTAVYYCARGANWHDTALDYWGQGTLVTVSS
# VL: DIQMTQSPSSLSASVGDRVTITCRASQSILSYVNWYQQKPGKAPKLLIYAATSLASGVPSRFSGSGSGTDFTLTISSLQPEDFATYYCQQSYDSPLTFGGGTKVEIK
# B2: 372_D03 (antibody, V domains shown)
# VH: B1 VH with G33S, S49A, N50G, T58K
# VL: B1 VL with L47V, A51V, L54R, A55H
# B3: 371_C12 (antibody, V domains shown)
# VH: B1 VH with G33S, S49A, N50G, T58K, A106H
# VL: B1 VL with L30V, L54R, S94T
# B4: 366_D01 (antibody, V domains shown)
# VH: B1 VH with N35H, N50S, S55G, S59G, G99A, A106H
# VL: B1 VL with S31T, L54R, D93E, S94N
# B5: 370_H02 (antibody, V domains shown)
# VH: B1 VH with S30D, G33S, N50G, A106H
# VL: B1 VL with S31T, V33L, L54R, D93E
# B6: 372_B02 (antibody, V domains shown)
# VH: B1 VH with G33S, N50G
# VL: B1 VL with A51V, D93E, S94T
# B7: 373_A03 (antibody, V domains shown)
# VH: B1 VH with S31D, G33S, S49A, S55G, S59G
# VL: B1 VL with V33L, L47V, L54R, S94N
# B8: 369_A07 (antibody, V domains shown)
# VH: B1 VH with G33S, S49A, N50G, S55G, T58K, S59G
# VL: B1 VL with V33L, L47V, L54R, D93E
# B9: 376_A06 (antibody, V domains shown)
# VH: B1 VH with S30D, G33S, N50G, G99S, N101T
# VL: B1 VL with V33L, L47V, A50Y, A51V, T52S, S53N, L54R, S94N
# B10: 365_D05 (antibody, V domains shown)
# VH: B1 VH with S30D, G33S, S49A, N50G, S55G, G99S, N101T, A106H
# VL: B1 VL with S31T, L54R, D93N
# B11: 369_G07 (antibody, V domains shown)
# VH: B1 VH with G33S, S49A, N50G, S55G, G99S, N101T, A106H
# VL: B1 VL with S31T, L47V, L54R, S94N
# B12: 376_B01 (antibody, V domains shown)
# VH: B1 VH with S30D, G33S, S49A, N50G, S55G, G99S, N101T, A106H
# VL: B1 VL with S31T, L47V, L54R, D93N, S94L
# B13: 365_F07 (antibody, V domains shown)
# VH: B1 VH with G33S, S55G, T58K, G99S, N101T
# VL: B1 VL with L47V, L54R, S94L
# Biological target: T1, His-tagged Human ACVR2B (human)
# Assay: ELISA, coated His-tagged antigen, 10 pt
row,binding,Binder
1,no binding (tested: 1 uM),B1
2,no binding (tested: 1 uM),B2
3,no binding (tested: 1 uM),B3
4,no binding (tested: 1 uM),B4
5,no binding (tested: 1 uM),B5
6,no binding (tested: 1 uM),B6
7,no binding (tested: 1 uM),B7
8,no binding (tested: 1 uM),B8

# Biological target: T2, His-tagged Mouse ACVR2B (mouse)
# Assay: ELISA, coated His-tagged antigen, 10 pt
row,binding,Binder
1,no binding (tested: 1 uM),B1
2,no binding (tested: 1 uM),B2
3,no binding (tested: 1 uM),B3
4,no binding (tested: 1 uM),B4
5,no binding (tested: 1 uM),B5
6,no binding (tested: 1 uM),B6
7,no binding (tested: 1 uM),B7
8,no binding (tested: 1 uM),B8

# Biological target: T1, His-tagged Human ACVR2B (human)
# Assay: ELISA, coated His-tagged human ACVR2B, 10-point
row,Binder,binding
1,B9,no binding (tested: 1 µM (top of the dilution series))
2,B10,no binding (tested: 1 µM (top of the dilution series))
3,B11,no binding (tested: 1 µM (top of the dilution series))
4,B12,no binding (tested: 1 µM (top of the dilution series))
5,B13,no binding (tested: 1 µM (top of the dilution series))

# Biological target: T2, His-tagged Mouse ACVR2B (mouse)
# Assay: ELISA, coated His-tagged mouse ACVR2B, 10-point
row,Binder,binding
1,B9,no binding (tested: 1 µM (top of the dilution series))
2,B10,no binding (tested: 1 µM (top of the dilution series))
3,B11,no binding (tested: 1 µM (top of the dilution series))
4,B12,no binding (tested: 1 µM (top of the dilution series))
5,B13,no binding (tested: 1 µM (top of the dilution series))
